No constants are given. Whether binding was seen depends on the method and setting. Binding seen in cells or lysates may run through a third protein. These calls come from enrichment with a bait or labelling near it, and not all partners need be listed. For some assays here: Sequences can lack the tags named with a protein.

Amino acid sequences for entries named in this document (tags omitted). A change or cut given only in a name is not applied to a line headed by its entry.
UniProt Q9Y6B6: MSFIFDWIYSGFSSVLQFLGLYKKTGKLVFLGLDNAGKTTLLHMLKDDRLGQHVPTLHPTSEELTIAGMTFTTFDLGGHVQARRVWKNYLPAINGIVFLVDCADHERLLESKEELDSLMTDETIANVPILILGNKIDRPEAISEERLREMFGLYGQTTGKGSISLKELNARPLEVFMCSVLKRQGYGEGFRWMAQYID
UniProt P84077: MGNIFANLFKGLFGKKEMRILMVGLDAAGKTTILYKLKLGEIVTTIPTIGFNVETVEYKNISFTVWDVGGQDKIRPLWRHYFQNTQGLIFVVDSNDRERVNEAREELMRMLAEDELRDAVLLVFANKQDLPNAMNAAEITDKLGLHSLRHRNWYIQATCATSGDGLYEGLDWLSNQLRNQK
UniProt Q8N6T3: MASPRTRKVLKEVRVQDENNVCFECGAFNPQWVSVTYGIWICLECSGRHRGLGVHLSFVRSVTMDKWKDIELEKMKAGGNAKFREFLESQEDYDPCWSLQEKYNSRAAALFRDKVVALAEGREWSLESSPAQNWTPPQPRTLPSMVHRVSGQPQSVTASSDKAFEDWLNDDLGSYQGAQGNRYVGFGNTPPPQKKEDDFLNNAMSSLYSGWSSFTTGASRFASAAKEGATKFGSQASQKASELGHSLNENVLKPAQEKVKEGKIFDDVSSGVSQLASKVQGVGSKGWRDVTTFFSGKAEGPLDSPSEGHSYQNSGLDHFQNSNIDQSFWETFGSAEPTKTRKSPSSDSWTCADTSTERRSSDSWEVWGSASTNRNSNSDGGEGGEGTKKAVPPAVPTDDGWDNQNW
UniProt Q14789: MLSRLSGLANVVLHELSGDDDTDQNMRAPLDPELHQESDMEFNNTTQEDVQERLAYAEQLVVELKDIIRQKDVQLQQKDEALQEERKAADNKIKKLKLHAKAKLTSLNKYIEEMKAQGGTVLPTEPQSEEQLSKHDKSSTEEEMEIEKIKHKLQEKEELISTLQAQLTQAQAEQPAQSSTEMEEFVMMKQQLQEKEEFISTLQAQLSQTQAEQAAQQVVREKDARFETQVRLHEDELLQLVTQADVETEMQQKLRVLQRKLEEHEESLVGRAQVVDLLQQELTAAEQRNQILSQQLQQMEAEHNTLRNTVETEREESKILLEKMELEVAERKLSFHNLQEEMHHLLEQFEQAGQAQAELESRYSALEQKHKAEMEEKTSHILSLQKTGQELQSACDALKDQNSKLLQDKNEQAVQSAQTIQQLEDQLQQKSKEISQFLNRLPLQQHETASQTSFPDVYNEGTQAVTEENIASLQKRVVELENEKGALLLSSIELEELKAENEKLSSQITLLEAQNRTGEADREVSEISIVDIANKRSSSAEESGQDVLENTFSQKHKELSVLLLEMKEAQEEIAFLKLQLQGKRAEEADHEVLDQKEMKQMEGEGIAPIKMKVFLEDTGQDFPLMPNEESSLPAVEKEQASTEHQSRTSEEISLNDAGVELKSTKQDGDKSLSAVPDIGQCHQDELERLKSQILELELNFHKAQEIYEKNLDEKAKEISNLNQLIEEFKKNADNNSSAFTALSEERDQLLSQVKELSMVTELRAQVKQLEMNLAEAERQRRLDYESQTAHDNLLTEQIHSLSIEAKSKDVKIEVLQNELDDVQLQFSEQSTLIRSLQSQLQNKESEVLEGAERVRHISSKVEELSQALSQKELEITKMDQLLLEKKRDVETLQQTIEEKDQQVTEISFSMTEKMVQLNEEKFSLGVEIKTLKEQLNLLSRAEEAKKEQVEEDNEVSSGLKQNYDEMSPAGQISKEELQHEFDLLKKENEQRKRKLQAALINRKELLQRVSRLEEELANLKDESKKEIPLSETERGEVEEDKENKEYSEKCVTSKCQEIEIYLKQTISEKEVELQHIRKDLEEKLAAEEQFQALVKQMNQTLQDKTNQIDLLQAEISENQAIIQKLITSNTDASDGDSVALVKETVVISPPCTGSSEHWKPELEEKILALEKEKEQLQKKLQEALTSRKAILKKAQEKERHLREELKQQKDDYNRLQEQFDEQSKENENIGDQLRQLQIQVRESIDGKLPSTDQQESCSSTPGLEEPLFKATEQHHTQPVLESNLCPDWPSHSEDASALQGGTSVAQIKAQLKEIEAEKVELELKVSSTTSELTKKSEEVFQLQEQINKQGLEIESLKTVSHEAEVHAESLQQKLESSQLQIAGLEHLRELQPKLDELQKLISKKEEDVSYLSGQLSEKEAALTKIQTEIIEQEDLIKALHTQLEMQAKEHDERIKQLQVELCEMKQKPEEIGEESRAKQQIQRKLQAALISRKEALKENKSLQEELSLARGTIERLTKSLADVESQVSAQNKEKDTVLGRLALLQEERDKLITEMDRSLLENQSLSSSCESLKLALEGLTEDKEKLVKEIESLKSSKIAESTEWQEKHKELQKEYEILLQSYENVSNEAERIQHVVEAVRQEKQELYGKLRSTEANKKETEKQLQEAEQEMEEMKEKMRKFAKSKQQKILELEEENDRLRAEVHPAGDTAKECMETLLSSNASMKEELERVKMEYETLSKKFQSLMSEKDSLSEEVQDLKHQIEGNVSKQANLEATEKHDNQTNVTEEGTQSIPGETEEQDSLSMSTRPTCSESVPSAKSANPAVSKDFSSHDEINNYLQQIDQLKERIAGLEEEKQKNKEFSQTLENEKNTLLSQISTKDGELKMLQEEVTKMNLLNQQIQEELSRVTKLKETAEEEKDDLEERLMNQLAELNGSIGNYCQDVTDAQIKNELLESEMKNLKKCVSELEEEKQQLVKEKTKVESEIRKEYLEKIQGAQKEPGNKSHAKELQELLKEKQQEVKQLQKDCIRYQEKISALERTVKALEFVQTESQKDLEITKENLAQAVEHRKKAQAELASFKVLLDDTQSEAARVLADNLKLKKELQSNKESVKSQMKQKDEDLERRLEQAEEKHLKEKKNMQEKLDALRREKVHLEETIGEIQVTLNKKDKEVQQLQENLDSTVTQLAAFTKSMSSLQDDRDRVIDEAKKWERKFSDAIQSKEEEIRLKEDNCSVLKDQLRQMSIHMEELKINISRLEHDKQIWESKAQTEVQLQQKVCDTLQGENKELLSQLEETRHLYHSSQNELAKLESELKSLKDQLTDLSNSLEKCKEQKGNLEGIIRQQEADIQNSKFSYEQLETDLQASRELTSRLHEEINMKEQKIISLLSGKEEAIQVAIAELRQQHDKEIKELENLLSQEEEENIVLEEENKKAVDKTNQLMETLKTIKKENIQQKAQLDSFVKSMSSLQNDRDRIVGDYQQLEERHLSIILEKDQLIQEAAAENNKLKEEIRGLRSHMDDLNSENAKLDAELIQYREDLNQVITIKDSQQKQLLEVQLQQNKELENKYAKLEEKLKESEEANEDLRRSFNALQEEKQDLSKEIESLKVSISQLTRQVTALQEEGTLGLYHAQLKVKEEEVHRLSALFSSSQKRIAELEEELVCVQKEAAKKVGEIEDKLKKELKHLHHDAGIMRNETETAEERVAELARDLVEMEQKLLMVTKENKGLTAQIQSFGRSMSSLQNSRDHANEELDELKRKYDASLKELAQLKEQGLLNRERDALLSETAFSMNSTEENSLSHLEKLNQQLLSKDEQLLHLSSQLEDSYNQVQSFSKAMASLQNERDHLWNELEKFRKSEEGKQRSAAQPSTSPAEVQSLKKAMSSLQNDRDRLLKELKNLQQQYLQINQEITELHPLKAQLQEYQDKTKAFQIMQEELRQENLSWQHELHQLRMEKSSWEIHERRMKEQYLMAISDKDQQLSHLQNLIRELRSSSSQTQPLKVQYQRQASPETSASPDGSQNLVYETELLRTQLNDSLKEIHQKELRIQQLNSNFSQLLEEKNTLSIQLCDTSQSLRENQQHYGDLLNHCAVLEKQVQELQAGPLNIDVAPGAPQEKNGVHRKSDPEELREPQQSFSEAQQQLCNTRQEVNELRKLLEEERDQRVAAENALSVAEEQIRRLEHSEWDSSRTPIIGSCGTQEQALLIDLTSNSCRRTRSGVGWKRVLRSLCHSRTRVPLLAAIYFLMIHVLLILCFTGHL
UniProt Q9Y6D5: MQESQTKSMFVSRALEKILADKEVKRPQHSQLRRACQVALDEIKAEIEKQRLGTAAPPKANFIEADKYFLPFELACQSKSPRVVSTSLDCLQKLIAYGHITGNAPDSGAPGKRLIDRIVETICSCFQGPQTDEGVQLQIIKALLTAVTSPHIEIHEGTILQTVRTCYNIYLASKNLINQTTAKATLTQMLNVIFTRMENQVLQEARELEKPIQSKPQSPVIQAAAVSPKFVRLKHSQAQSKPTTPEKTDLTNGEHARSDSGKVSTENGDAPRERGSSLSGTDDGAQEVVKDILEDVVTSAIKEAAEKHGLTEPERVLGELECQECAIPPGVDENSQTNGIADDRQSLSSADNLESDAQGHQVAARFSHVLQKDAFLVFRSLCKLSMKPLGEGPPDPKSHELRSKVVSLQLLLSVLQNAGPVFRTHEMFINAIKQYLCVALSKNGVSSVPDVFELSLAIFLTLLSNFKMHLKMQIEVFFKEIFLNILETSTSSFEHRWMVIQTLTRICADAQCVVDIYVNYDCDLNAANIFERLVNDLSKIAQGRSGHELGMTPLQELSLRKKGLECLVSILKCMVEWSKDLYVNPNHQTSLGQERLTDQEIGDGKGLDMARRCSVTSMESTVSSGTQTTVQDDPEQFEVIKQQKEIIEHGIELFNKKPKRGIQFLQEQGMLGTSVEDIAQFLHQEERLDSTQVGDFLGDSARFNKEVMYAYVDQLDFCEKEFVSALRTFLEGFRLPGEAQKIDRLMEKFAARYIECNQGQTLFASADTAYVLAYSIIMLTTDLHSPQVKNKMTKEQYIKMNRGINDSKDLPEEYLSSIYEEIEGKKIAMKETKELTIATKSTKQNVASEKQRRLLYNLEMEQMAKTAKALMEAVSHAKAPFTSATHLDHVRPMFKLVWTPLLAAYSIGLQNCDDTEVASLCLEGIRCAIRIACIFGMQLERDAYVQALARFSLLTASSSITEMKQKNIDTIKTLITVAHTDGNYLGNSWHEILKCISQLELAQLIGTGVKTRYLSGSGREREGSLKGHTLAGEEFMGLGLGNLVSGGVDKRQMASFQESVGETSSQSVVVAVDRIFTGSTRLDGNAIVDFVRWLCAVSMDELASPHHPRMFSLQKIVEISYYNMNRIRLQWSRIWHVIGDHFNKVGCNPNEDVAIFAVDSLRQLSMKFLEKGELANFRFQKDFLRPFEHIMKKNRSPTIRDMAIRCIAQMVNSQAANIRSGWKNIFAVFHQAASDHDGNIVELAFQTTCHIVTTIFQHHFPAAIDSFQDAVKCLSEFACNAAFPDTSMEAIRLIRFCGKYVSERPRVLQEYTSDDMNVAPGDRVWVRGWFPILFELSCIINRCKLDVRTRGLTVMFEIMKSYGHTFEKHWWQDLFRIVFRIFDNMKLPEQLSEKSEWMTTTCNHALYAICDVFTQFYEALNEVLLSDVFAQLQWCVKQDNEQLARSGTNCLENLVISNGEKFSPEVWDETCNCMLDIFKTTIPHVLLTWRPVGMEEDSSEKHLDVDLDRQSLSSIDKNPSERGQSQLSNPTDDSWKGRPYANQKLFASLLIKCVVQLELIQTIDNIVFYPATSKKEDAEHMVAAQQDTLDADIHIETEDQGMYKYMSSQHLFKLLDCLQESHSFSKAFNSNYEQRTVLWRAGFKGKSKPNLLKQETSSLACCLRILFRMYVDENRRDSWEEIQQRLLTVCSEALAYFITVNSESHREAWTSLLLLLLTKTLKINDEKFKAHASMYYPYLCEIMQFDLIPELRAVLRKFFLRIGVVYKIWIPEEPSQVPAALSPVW
UniProt Q15836: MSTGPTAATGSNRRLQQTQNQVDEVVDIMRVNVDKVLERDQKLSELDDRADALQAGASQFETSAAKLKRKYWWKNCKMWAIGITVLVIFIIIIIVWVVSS
UniProt Q13596: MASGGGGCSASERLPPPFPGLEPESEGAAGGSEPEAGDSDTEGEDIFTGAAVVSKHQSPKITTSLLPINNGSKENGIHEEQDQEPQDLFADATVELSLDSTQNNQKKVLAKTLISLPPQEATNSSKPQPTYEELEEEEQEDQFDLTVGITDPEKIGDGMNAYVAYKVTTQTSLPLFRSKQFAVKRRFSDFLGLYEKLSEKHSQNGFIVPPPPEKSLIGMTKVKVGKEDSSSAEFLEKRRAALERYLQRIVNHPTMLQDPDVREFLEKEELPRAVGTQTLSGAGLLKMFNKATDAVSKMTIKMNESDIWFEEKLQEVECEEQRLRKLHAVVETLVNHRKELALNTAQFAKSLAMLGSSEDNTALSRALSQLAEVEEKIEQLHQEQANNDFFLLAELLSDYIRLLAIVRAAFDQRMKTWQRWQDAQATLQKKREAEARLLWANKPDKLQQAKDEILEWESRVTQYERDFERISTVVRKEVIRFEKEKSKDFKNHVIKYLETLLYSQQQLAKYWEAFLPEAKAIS

Among the data in publication PMC11166204, “Mapping the global interactome of the ARF family reveals spatial organization in cellular signaling pathways” (Journal of Cell Science, 2024) are binding values, retold here.

Common to all, as to test: proximity labelling; BioID: constitutively active ARF/ARL bait with C-terminal BirA*–Flag, tetracycline-induced in Flp-In T-REx HEK293 and Flp-In T-REx HeLa cells, 50 µM biotin, 24 h labelling; RIPA lysis, streptavidin beads, on-bead trypsin, MS; SAINT AvgP ≥0.95 with AvgSpec and CAAX-ratio filters
Assay [1] concerns the target constitutively active SAR1B–BirA*–Flag (human) (UniProt Q9Y6B6).
The target of assay [2] is constitutively active ARF1 (Q71L)–BirA*–Flag (human) (UniProt P84077).
Assay [3] has as its target T1, constitutively active ARL14 (Q68L)–BirA*–Flag (human) (UniProt Q8N4G2).
T1 sequence: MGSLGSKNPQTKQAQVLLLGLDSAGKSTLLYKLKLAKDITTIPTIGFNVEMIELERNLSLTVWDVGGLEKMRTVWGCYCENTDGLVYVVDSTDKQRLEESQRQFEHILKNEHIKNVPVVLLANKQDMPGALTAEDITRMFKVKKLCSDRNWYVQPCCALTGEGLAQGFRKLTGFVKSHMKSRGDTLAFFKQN

MIA3 (from UniProt Q5JRA6 23-1907): the binding entry in assay [1] is “binds”.
As to ARFGAP2 (from UniProt Q8N6H7 1-521), the binding entry in assay [2] is on record as “binds”.
Still for that read-out and setting: the value for ARFGAP1 (from UniProt Q8N6T3 1-406) was “binds”.
For GOLGB1 (from UniProt Q14789 1-3259), the binding result in assay [2] is on record as “binds”.
For the molecule ARFGEF2 (from UniProt Q9Y6D5 1-1785), in assay [2], the binding result was “binds”.
Same read-out and setting: the value for VAMP3 (from UniProt Q15836 1-100) was “binds”; that for ARFGAP3 (from UniProt Q9NP61 1-516) was “binds”.
With SNX1 (from UniProt Q13596 1-522), the binding entry in assay [3] was “binds”.

B1: MIA2 (protein, UniProt Q96PC5 20-1412)
chain: LESTKLLADLKKCGDLECEALINRVSAMRDYRGPDCRYLNFTKGEEISVYVKLAGEREDLWAGSKGKEFGYFPRDAVQIEEVFISEEIQMSTKESDFLCLLGVSYTFDNEDSELNGDYGENIYPYEEDKDEKSSIYESDFQIEPGFYATYESTLFEDQVPALEAPEDIGSTSESKDWEEVVVESMEQDRIPEVHVPPSSAVSGVKEWFGLGGEQAEEKAFESVIEPVQESSFRSRKIAVEDENDLEELNNGEPQTEHQQESESEIDSVPKTQSELASESEHIPKPQSTGWFGGGFTSYLGFGDEDTGLELIAEESNPPLQDFPNSISSDKEATVPCTEILTEKKDTITNDSLSLKPSWFDFGFAILGFAYAKEDKIMLDDRKNEEDGGADEHEHPLTSELDPEKEQEIETIKIIETEDQIDKKPVSEKTDESDTIPYLKKFLYNFDNPWNFQNIPKETELPFPKQILDQNNVIENEETGEFSIDNYPTDNTKVMIFKSSYSLSDMVSNIELPTRIHEEVYFEPSSSKDSDENSKPSVDTEGPALVEIDRSVENTLLNSQMVSTDNSLSSQNYISQKEDASEFQILKYLFQIDVYDFMNSAFSPIVILTERVVAALPEGMRPDSNLYGFPWELVICAAVVGFFAVLFFLWRSFRSVRSRLYVGREKKLALMLSGLIEEKSKLLEKFSLVQKEYEGYEVESSLKDASFEKEATEAQSLEATCEKLNRSNSELEDEILCLEKELKEEKSKHSEQDELMADISKRIQSLEDESKSLKSQVAEAKMTFKIFQMNEERLKIAIKDALNENSQLQESQKQLLQEAEVWKEQVSELNKQKVTFEDSKVHAEQVLNDKESHIKTLTERLLKMKDWAAMLGEDITDDDNLELEMNSESENGAYLDNPPKGALKKLIHAAKLNASLKTLEGERNQIYIQLSEVDKTKEELTEHIKNLQTEQASLQSENTHFENENQKLQQKLKVMTELYQENEMKLHRKLTVEENYRLEKEEKLSKVDEKISHATEELETYRKRAKDLEEELERTIHSYQGQIISHEKKAHDNWLAARNAERNLNDLRKENAHNRQKLTETELKFELLEKDPYALDVPNTAFGREHSPYGPSPLGWPSSETRAFLSPPTLLEGPLRLSPLLPGGGGRGSRGPGNPLDHQITNERGESSCDRLTDPHRAPSDTGSLSPPWDQDRRMMFPPPGQSYPDSALPPQRQDRFCSNSGRLSGPAELRSFNMPSLDKMDGSMPSEMESSRNDTKDDLGNLNVPDSSLPAENEATGPGFVPPPLAPIRGPLFPVDARGPFLRRGPPFPPPPPGAMFGASRDYFPPGDFPGPPPAPFAMRNVYPPRGFPPYLPPRPGFFPPPPHSEGRSEFPSGLIPPSNEPATEHPEPQQET
For the molecule B1, in assay [1], the binding result is “binds”.

B2: GOLGA3 (protein, UniProt Q08378 1-1498)
chain: MDGASAEQDGLQEDRSHSGPSSLPEAPLKPPGPLVPPDQQDKVQCAEVNRASTEGESPDGPGQGGLCQNGPTPPFPDPPSSLDPTTSPVGPDASPGVAGFHDNLRKSQGTSAEGSVRKEALQSLRLSLPMQETQLCSTDSPLPLEKEEQVRLQARKWLEEQLKQYRVKRQQERSSQPATKTRLFSTLDPELMLNPENLPRASTLAMTKEYSFLRTSVPRGPKVGSLGLPAHPREKKTSKSSKIRSLADYRTEDSNAGNSGGNVPAPDSTKGSLKQNRSSAASVVSEISLSPDTDDRLENTSLAGDSVSEVDGNDSDSSSYSSASTRGTYGILSKTVGTQDTPYMVNGQEIPADTLGQFPSIKDVLQAAAAEHQDQGQEVNGEVRSRRDSICSSVSLESSAAETQEEMLQVLKEKMRLEGQLEALSLEASQALKEKAELQAQLAALSTKLQAQVECSHSSQQRQDSLSSEVDTLKQSCWDLERAMTDLQNMLEAKNASLASSNNDLQVAEEQYQRLMAKVEDMQRSMLSKDNTVHDLRQQMTALQSQLQQVQLERTTLTSKLKASQAEISSLQSVRQWYQQQLALAQEARVRLQGEMAHIQVGQMTQAGLLEHLKLENVSLSQQLTETQHRSMKEKGRIAAQLQGIEADMLDQEAAFMQIQEAKTMVEEDLQRRLEEFEGERERLQRMADSAASLEQQLEQVKLTLLQRDQQLEALQQEHLDLMKQLTLTQEALQSREQSLDALQTHYDELQARLGELQGEAASREDTICLLQNEKIILEAALQAAKSGKEELDRGARRLEEGTEETSETLEKLREELAIKSGQVEHLQQETAALKKQMQKIKEQFLQQKVMVEAYRRDATSKDQLISELKATRKRLDSELKELRQELMQVHGEKRTAEAELSRLHREVAQVRQHMADLEGHLQSAQKERDEMETHLQSLQFDKEQMVAVTEANEALKKQIEELQQEARKAITEQKQKMRRLGSDLTSAQKEMKTKHKAYENAVGILSRRLQEALAAKEAADAELGQLRAQGGSSDSSLALHERIQALEAELQAVSHSKTLLEKELQEVIALTSQELEESREKVLELEDELQESRGFRKKIKRLEESNKKLALELEHEKGKLTGLGQSNAALREHNSILETALAKREADLVQLNLQVQAVLQRKEEEDRQMKHLVQALQASLEKEKEKVNSLKEQVAAAKVEAGHNRRHFKAASLELSEVKKELQAKEHLVQKLQAEADDLQIREGKHSQEIAQFQAELAEARAQLQLLQKQLDEQLSKQPVGNQEMENLKWEVDQKEREIQSLKQQLDLTEQQGRKELEGLQQLLQNVKSELEMAQEDLSMTQKDKFMLQAKVSELKNNMKTLLQQNQQLKLDLRRGAAKTRKEPKGEASSSNPATPIKIPDCPVPASLLEELLRPPPAVSKEPLKNLNSCLQQLKQEMDSLQRQMEEHALTVHESLSSWTPLEPATASPVPPGGHAGPRGDPQRHSQSRASKEGPGE
On to B2, for which the binding result in assay [2] is “binds”.

B3: GOLGA5 (protein, UniProt Q8TBA6 1-731)
chain: MSWFVDLAGKAEDLLNRVDQGAATALSRKDNASNIYSKNTDYTELHQQNTDLIYQTGPKSTYISSAADNIRNQKATILAGTANVKVGSRTPVEASHPVENASVPRPSSHFVRRKKSEPDDELLFDFLNSSQKEPTGRVEIRKEKGKTPVFQSSQTSSVSSVNPSVTTIKTIEENSFGSQTHEAASNSDSSHEGQEESSKENVSSNAACPDHTPTPNDDGKSHELSNLRLENQLLRNEVQSLNQEMASLLQRSKETQEELNKARARVEKWNADHSKSDRMTRGLRAQVDDLTEAVAAKDSQLAVLKVRLQEADQLLSTRTEALEALQSEKSRIMQDQSEGNSLQNQALQTFQERLHEADATLKREQESYKQMQSEFAARLNKVEMERQNLAEAITLAERKYSDEKKRVDELQQQVKLYKLNLESSKQELIDYKQKATRILQSKEKLINSLKEGSGFEGLDSSTASSMELEELRHEKEMQREEIQKLMGQIHQLRSELQDMEAQQVNEAESAREQLQDLHDQIAGQKASKQELETELERLKQEFHYIEEDLYRTKNTLQSRIKDRDEEIQKLRNQLTNKTLSNSSQSELENRLHQLTETLIQKQTMLESLSTEKNSLVFQLERLEQQMNSASGSSSNGSSINMSGIDNGEGTRLRNVPVLFNDTETNLAGMYGKVRKAASSIDQFSIRLGIFLRRYPIARVFVIIYMALLHLWVMIVLLTYTPEMHHDQPYGK
Turning to B3, the binding result in assay [2] is listed as “binds”.

B4: VTI1B (protein, UniProt Q9UEU0 1-232)
chain: MASSAASSEHFEKLHEIFRGLHEDLQGVPERLLGTAGTEEKKKLIRDFDEKQQEANETLAEMEEELRYAPLSFRNPMMSKLRNYRKDLAKLHREVRSTPLTATPGGRGDMKYGIYAVENEHMNRLQSQRAMLLQGTESLNRATQSIERSHRIATETDQIGSEIIEELGEQRDQLERTKSRLVNTSENLSKSRKILRSMSRKVTTNKLLLSIIILLELAILGGLVYYKFFRSH
For the molecule B4, the binding result in assay [2] was “binds”.

B5: BET1 (protein, UniProt O15155 1-118)
chain: MRRAGLGEGVPPGNYGNYGYANSGYSACEEENERLTESLRSKVTAIKSLSIEIGHEVKTQNKLLAEMDSQFDSTTGFLGKTMGKLKILSRGSQTKLLCYMMLFSLFVFFIIYWIIKLR
On to B5, for which the binding entry in assay [1] is recorded as “binds”.

B6: VPS50 (protein, UniProt Q96JG6 1-964)
chain: MQKIKSLMTRQGLKSPQESLSDLGAIESLRVPGKEEFRELREQPSDPQAEQELINSIEQVYFSVDSFDIVKYELEKLPPVLNLQELEAYRDKLKQQQAAVSKKVADLILEKQPAYVKELERVTSLQTGLQLAAVICTNGRRHLNIAKEGFTQASLGLLANQRKRQLLIGLLKSLRTIKTLQRTDVRLSEMLEEEDYPGAIQLCLECQKAASTFKHYSCISELNSKLQDTLEQIEEQLDVALSKICKNFDINHYTKVQQAYRLLGKTQTAMDQLHMHFTQAIHNTVFQVVLGYVELCAGNTDTKFQKLQYKDLCTHVTPDSYIPCLADLCKALWEVMLSYYRTMEWHEKHDNEDTASASEGSNMIGTEETNFDRGYIKKKLEHGLTRIWQDVQLKVKTYLLGTDLSIFKYDDFIFVLDIISRLMQVGEEFCGSKSEVLQESIRKQSVNYFKNYHRTRLDELRMFLENETWELCPVKSNFSILQLHEFKFMEQSRSPSVSPSKQPVSTSSKTVTLFEQYCSGGNPFEIQANHKDEETEDVLASNGYESDEQEKSAYQEYDSDSDVPEELKRDYVDEQTGDGPVKSVSRETLKSRKKSDYSLNKVNAPILTNTTLNVIRLVGKYMQMMNILKPIAFDVIHFMSQLFDYYLYAIYTFFGRNDSLESTGLGLSSSRLRTTLNRIQESLIDLEVSADPTATLTAAEERKEKVPSPHLSHLVVLTSGDTLYGLAERVVATESLVFLAEQFEFLQPHLDAVMPAVKKPFLQQFYSQTVSTASELRKPIYWIVAGKALDYEQMLLLMANVKWDVKEIMSQHNIYVDALLKEFEQFNRRLNEVSKRVRIPLPVSNILWEHCIRLANRTIVEGYANVKKCSNEGRALMQLDFQQFLMKLEKLTDIRPIPDKEFVETYIKAYYLTENDMERWIKEHREYSTKQLTNLVNVCLGSHINKKARQKLLAAIDDIDRPKR
In the case of B6, the binding result in assay [2] is reported as “binds”.
